From PubChem BioAssay AID1671190 (National Center for Advancing Translational Sciences (NCATS), 2021)
“And” between values parts separate entries of the source, which are not always exact repeats. Equal entries are not always repeated. Out of some 580,000 compounds screened, about 6,100 (1.1%) were called active. Inconclusive results, whose numbers are uncertain, are shown with a selection of clear calls. The call rests on the fitted dose curve; in most records, active means well fitted inhibition curve with a large enough effect; inconclusive means small, poorly fitted or top-dose-only effect, or another doubt; inactive means no such curve, though single readings can be large or run the other way. A potency beside an inconclusive call is a rough fit, not a confirmed value.

By UniProt entry, the sequences of proteins in these tests, tags left out. Where a name states a change or a piece, a line headed by the entry shows the natural chain unless it says otherwise.
UniProt P18054: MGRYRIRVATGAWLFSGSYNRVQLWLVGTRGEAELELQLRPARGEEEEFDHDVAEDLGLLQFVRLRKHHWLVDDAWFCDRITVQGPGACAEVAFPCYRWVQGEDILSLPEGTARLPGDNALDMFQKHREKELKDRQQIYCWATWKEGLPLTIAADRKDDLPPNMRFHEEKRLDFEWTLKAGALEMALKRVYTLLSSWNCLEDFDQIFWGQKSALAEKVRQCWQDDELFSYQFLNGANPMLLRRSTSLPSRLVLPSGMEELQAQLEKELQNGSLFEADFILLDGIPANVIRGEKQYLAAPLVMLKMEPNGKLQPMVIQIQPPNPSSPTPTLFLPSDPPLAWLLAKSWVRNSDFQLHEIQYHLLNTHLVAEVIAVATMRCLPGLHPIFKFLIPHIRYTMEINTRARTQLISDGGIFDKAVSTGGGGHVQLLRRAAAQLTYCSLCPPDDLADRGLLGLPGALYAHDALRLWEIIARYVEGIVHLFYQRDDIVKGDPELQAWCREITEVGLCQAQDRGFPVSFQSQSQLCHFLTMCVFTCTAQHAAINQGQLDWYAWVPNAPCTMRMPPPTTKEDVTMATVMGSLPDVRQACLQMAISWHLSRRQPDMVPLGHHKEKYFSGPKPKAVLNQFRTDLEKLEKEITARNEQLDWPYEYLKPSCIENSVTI

These molecules were tested against Polyunsaturated fatty acid lipoxygenase ALOX12 (Homo sapiens) (UniProt P18054) (assay: Primary qHTS assay for inhibitors of human arachidonate 12S-lipoxygenase (ALOX12): Round 2). Settings: purified 12hLO, xylenol orange hydroperoxide absorbance; activity change, negative = inhibition: at 108 µM (top of the series) unless noted.
Method in brief: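 Purified human 12hLO (150 nM final) in 25 mM Hepes, 0.01% Triton X-100, pH 7.0 was preincubated 15 min at room temperature with compound. Then 40 uM arachidonic acid was added, 30 min. Hydroperoxide was read by Fe-XO absorbance ratio 573/405 nm.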
On the % scale 0 is the no-effect control and ±100 the full control effect; potency means the concentration at half of the fitted maximal effect.

Row | SMILES | Potency | activity change, negative = inhibition
1 | CCOc1cc(C2Nc3ccc(C)cc3[C@H]3OCCC[C@@H]23)cc(Br)c1O (stereo not given in full) | inconclusive: 39.8 µM [inhibitor, partial curve, poor fit] | –
2 | COC(=O)C1=C(C)NC(=O)CC1c1cccc(F)c1 (stereo not given) | – | inactive: 37.2%
3 | c1ccc2sc(C34CC5CC(CC(C5)C3)C4)nc2c1 | inconclusive: 31.6 µM [inhibitor, full curve, poor fit] | –
4 | Cc1ccc(CN2CC(C(=O)N3CCN(S(=O)(=O)c4ccc(C)cc4C)CC3)CC2=O)cc1 (stereo not given) | – | inactive: 16.8%
5 | CC(C)(Oc1ccc(Br)cc1Cl)C(=O)Nc1ccon1 | inconclusive: 44.7 µM [inhibitor, partial curve] | –
6 | Cc1nc(-c2ccc(C)c(S(=O)(=O)N3CCCC3)c2)cs1 | – | inactive: 2.96%
7 | Cc1ccc(CN(C(=O)c2ccc(C(N)=O)s2)C2CC2)o1 | inconclusive: 141 µM [inhibitor, partial curve, poor fit] | –
8 | Cc1ccc(/C=C/C(=O)NCc2ccccn2)o1 | – | inactive: -1.19%
9 | Cc1ccc(-c2nn3c(C)nnc3s2)cc1N | – | inactive: 16.8%
10 | CCCN(Cc1cc2ccc(C)cc2[nH]c1=O)S(C)(=O)=O | – | inconclusive: -49.7% [inhibitor]
11 | Oc1ccc(Cc2ccccc2Cl)c(O)c1 | inconclusive: 100 µM [inhibitor, partial curve, poor fit] | –
12 | CC1C(=O)OC2C1CCC1(C)CCC(=O)C(C)C21 (stereo not given) | inconclusive: 31.6 µM [inhibitor, partial curve, poor fit] | –
13 | CCOc1ccc(NS(=O)(=O)c2ccc3[nH]cc(C(=O)N(C)C4CCCCC4)c(=O)c3c2)cc1 | inconclusive: 50.1 µM [inhibitor, partial curve, poor fit] | –
14 | O=C(NCCc1ccccc1)C1CC(=O)N(C2CCCCCC2)C1 (stereo not given) | – | inactive: 13.7%
15 | CCOC(=O)COc1cc(O)c2c(=O)cc(-c3ccccc3)oc2c1 | inconclusive: 89.1 µM [inhibitor, partial curve, poor fit] | –
16 | CCCCN=C1N/C(=C\c2ccco2)C(=O)N1c1ccccc1 | inconclusive: 44.7 µM [inhibitor, single point] | –
17 | O=C(Oc1ccc(-c2nc(-c3ccccn3)no2)cc1)c1ccccc1 | inconclusive: 20 µM [inhibitor, partial curve, poor fit] | –
18 | O=C(C[C@H]1C/C=C\CC[C@@H](Cc2ccc(F)cc2)C(=O)OC[C@H]2CCCN2C1=O)N[C@@H](CO)Cc1ccccc1 | inconclusive: 89.1 µM [inhibitor, single point] | –
19 | C=C(C)C1CC=C(C)/C(=N/NC(=S)Nc2ccccc2)C1 (stereo not given) | inconclusive: 20 µM [inhibitor, partial curve] | –
20 | O=C(Nc1cc(S(=O)(=O)N2CCOCC2)ccc1N1CCCC1)c1cc(F)c(F)cc1Cl | inconclusive: 50.1 µM [inhibitor, partial curve, poor fit] | –
21 | O=C(Cc1cc(=O)[nH][nH]1)N/N=C/C(Cl)=C/c1ccccc1 | inactive and inconclusive: 50.1 µM [inhibitor, partial curve, poor fit] | –
22 | O=C(O)c1cc(S(=O)(=O)Nc2cccc(S(=O)(=O)N3CCCC3)c2)ccc1Cl | inconclusive: 100 µM [inhibitor, partial curve, poor fit] | –

Row | SMILES | Potency | activity change, negative = inhibition
23 | O=S(=O)(/N=C/N1CCOCC1)c1ccc(Cl)cc1 | – | inactive: 32.8%
24 | Clc1ccc(OCc2nc(-c3ccccn3)n[nH]2)cc1 | – | inactive: 26.3%
25 | O=C(NCCCN1CCCCC1)c1ccc2c(c1)sc1nc(-c3ccc(F)cc3)cn12 | inconclusive: 56.2 µM [inhibitor, partial curve, poor fit] | –
26 | COc1ccc(S(=O)(=O)N2CCN(S(=O)(=O)c3ccc(C(F)(F)F)cc3)CC2)cc1C | – | inactive: -11.2%
27 | CCOc1cc(/C=C/c2cc(C(F)(F)F)[nH]c(=O)n2)ccc1O | inconclusive: 50.1 µM [inhibitor, partial curve, poor fit] | –
28 | C[N+](C)(C)c1ccc(/C=N/Nc2nc(Cl)c(C#N)c(Cl)c2Cl)cc1 | inconclusive: 20 µM [inhibitor, partial curve, poor fit] | –
29 | O=C(Cc1ccccc1)c1ccc(O)cc1O | inconclusive: 141 µM [inhibitor, partial curve, poor fit] | –
30 | Cc1cc(C)c2c(=O)n3c(nc2c1)C(Cc1ccccc1)NC(=O)c1cccnc1-3 (stereo not given) | inconclusive: 112 µM [inhibitor, single point] | –
31 | CCOc1ccc(N=C/C=C/c2ccccc2)c(O)c1 | inconclusive: 17.8 µM [inhibitor, partial curve, poor fit] | –
32 | CC1(Cc2cccc(C(F)(F)F)c2)C(=O)Nc2c(Cl)cccc21 (stereo not given) | – | inactive: -14.7%
33 | COc1ccc(C2C(=O)N(C3CCCCCC3)CC(=O)N2Cc2ccccc2)cc1 (stereo not given) | – | inconclusive: -43.3% [inhibitor]
34 | COC(=O)c1c(-c2cccs2)csc1NC(=O)COc1ccccc1 | inconclusive: 63.1 µM [inhibitor, partial curve, poor fit] | –
35 | C/C(=N\Nc1cc(C(F)(F)F)ccc1Cl)c1ccncc1 | inconclusive: 50.1 µM [inhibitor, partial curve, poor fit] | –
36 | CC(NC(=O)Cc1ccc(N(Cc2ccccc2)C(=O)c2ccco2)cc1)c1ccccc1 (stereo not given) | – | inactive: 1.06%
37 | Cc1ccccc1Nc1ccc2nonc2c1[N+](=O)[O-] | – | inactive: 32.7%
38 | COc1ccc(C2=Nn3c(C)nnc3SC2)cc1 | inconclusive: 35.5 µM [inhibitor, partial curve, poor fit] | –
39 | COc1ccc(Cl)cc1S(=O)(=O)n1ccnc1 | inconclusive: 10 µM [inhibitor, full curve, poor fit] | –
40 | COc1ccc(C(=O)CCc2ccccc2)c(O)c1 | inconclusive: 28.2 µM [inhibitor, full curve, poor fit] | –
41 | Cc1nc(CNC(=O)CC2C(=O)NCCN2Cc2ccccn2)n[nH]1 (stereo not given) | – | inactive: 110%
42 | O=[N+]([O-])c1ccc2nonc2c1Nc1cc(Cl)ccc1Cl | inconclusive: 50.1 µM [inhibitor, partial curve, poor fit] | –
43 | CC(=O)N1CCc2cc(S(=O)(=O)N3c4ccccc4CC3C)ccc21 (stereo not given) | – | inactive: -6.23%
44 | CC(C)(C)CN1CC2(C1)C(=O)N(CCCN1CCCC1=O)C(=O)[C@@H]1C[C@@H](O)CN12 | – | inactive: 4.85% [at 176 µM]

Row | SMILES | Potency | activity change, negative = inhibition
45 | COc1ccccc1C(=O)NC(=O)COC(=O)CNC(=O)c1ccc(Cl)c([N+](=O)[O-])c1 | inconclusive: 141 µM [inhibitor, partial curve, poor fit] | –
46 | Cc1cc(C(=O)N[C@H](C)c2c(-c3ccc(Cl)cc3)noc2C(=O)O)c(C)o1 | inconclusive: 28.2 µM [inhibitor, full curve, poor fit] | –
47 | COc1cc(NC(=O)c2ccc(-c3ccc(Br)cc3)o2)ccc1NC(=O)C(C)C | – | inactive: -2.97%
48 | COc1cc(/C=N/NC(=O)c2ccc3c(c2)OCCO3)cc(Br)c1O | – | inactive: 11% [at 57.4 µM]
49 | O=C(CCCN1C(=O)/C(=C/c2ccc(F)cc2)SC1=S)Nc1ccc(C(=O)O)cc1 | inconclusive: 39.8 µM [inhibitor, full curve, poor fit] | –
50 | O=C(O)CCC(=O)CCC(=O)c1ccccc1 | inconclusive: 25.1 µM [inhibitor, full curve, poor fit] | –
51 | CN(c1ccc(Cl)cc1)S(=O)(=O)c1nnc(NC(=O)c2ccco2)s1 | inactive | –
52 | CC1=NNC(=O)/C1=C\c1cn(-c2ccccc2)nc1-c1cccs1 | inconclusive: 14.1 µM [inhibitor, partial curve] | –
53 | Nc1cc(C(F)(F)F)ccc1Nc1ccccc1 | inconclusive: 70.8 µM [inhibitor, partial curve, poor fit] | –
54 | O=C(CCn1c(=O)c2ccccc2n(Cc2ccc(Cl)cc2)c1=O)NCc1ccc2c(c1)OCO2 | inconclusive: 126 µM [inhibitor, partial curve, poor fit] | –
55 | CN(CCOc1ccc(Cl)cc1)C(=O)c1cc(-c2ccco2)nc2ccccc12 | inconclusive: 50.1 µM [inhibitor, partial curve, poor fit] | –
56 | C=CCNC(=S)N1CCN(c2cc3c(cc2F)c(=O)c(C(=O)O)cn3CC)CC1 | – | inactive: 6.44%
57 | CCCCNc1c(-c2cccc(SC3CCCCC3)c2)nc2ccc(Cl)cn12 | inconclusive: 89.1 µM [inhibitor, partial curve, poor fit] and inconclusive: 12.6 µM [inhibitor, partial curve, poor fit] | –
58 | O=c1[nH]c2ccc(NC(=S)Nc3ccccc3)cc2[nH]1 | inconclusive: 44.7 µM [inhibitor, partial curve, poor fit] | –
59 | CC(=O)c1cc(-c2ccccc2)[nH]c1N1CCOCC1 | inconclusive: 35.5 µM [inhibitor, partial curve] | –
60 | O=C(O)Cn1c(SCCOc2ccccc2F)nc2ccccc21 | inconclusive: 63.1 µM [inhibitor, partial curve, poor fit] | –
61 | C/C(=N/NC(=O)c1ccc(Cl)s1)c1ccc(NC(=O)COc2ccc(Cl)cc2)cc1 | inconclusive: 5.01 µM [inhibitor, full curve, poor fit] | –
62 | c1coc(-c2nnc(-c3ccco3)nn2)c1 | inconclusive: 15.8 µM [inhibitor, partial curve, poor fit] | –
63 | CC(=O)C1=C(O)C(=O)N(CCCCCC(=O)O)C1c1ccc(N(C)C)cc1 (stereo not given) | inconclusive: 3.16 µM [inhibitor, full curve, poor fit] | –
64 | COC(=O)c1cc(=O)nc(NN=Cc2ccc(C)cc2)s1 | inconclusive: 44.7 µM [inhibitor, partial curve] | –
65 | CC(=O)c1sc2nc(-c3cccs3)cc(C(F)(F)F)c2c1N | inconclusive: 44.7 µM [inhibitor, partial curve, poor fit] | –

Some of the entries so far, as a markdown table.

| Row | SMILES | Potency | activity change, negative = inhibition |
| --- | --- | --- | --- |
| 55 | CN(CCOc1ccc(Cl)cc1)C(=O)c1cc(-c2ccco2)nc2ccccc12 | inconclusive: 50.1 µM [inhibitor, partial curve, poor fit] | – |
| 56 | C=CCNC(=S)N1CCN(c2cc3c(cc2F)c(=O)c(C(=O)O)cn3CC)CC1 | – | inactive: 6.44% |
| 57 | CCCCNc1c(-c2cccc(SC3CCCCC3)c2)nc2ccc(Cl)cn12 | inconclusive: 89.1 µM [inhibitor, partial curve, poor fit] and inconclusive: 12.6 µM [inhibitor, partial curve, poor fit] | – |
| 58 | O=c1[nH]c2ccc(NC(=S)Nc3ccccc3)cc2[nH]1 | inconclusive: 44.7 µM [inhibitor, partial curve, poor fit] | – |
| 59 | CC(=O)c1cc(-c2ccccc2)[nH]c1N1CCOCC1 | inconclusive: 35.5 µM [inhibitor, partial curve] | – |
| 60 | O=C(O)Cn1c(SCCOc2ccccc2F)nc2ccccc21 | inconclusive: 63.1 µM [inhibitor, partial curve, poor fit] | – |
